Measured data: PubChem BioAssay AID1159578 (Peter MacCallum Cancer Centre, 2015)
Screen: 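Knock-downs that alter how fast lymphatic endothelial cells migrate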 (primary screen). System: human lymphatic endothelial cells. Reagent: siRNA pool against human genes, 40 nM. Duration: 48 h after transfection. Measurement: 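Cells stained with dye and imaged after a scratch; covered wound area and nuclei counted, duplicates averaged, migration set against mock wells and turned into a robust z-score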. Direction: migration robust z-score: higher = faster migration into the scratch; nuclei per well: higher = more cells in the well. Rule for the call: 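Pools averaging fewer than 3300 nuclei are never called; remaining pools count as changed when migration robust z lies outside -2 to 2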. Calls: active = migration changed; inactive = no migration change, or too few cells.
Here is an unselected part of about 18,000 reagents tested. About 1,030 of all reagents (5.7%) count as active. 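Inactive calls also include pools with fewer than 3300 nuclei, whose migration was not assessed.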 Raw values are not corrected between plates. Entries without a mark were called inactive. Not all columns of the deposit are shown.

no.	gene symbol	migration robust z-score	migration class with cell-count check	nuclei per well, duplicate mean
1	EZHIP (GeneID 340602)	1.26	migration z between -2 and 2; enough cells	5434
2	PRPF18 (GeneID 8559)	-0.34	migration z between -2 and 2; enough cells	5866
3	MORN4 (GeneID 118812)	-1.15	migration z between -2 and 2; enough cells	5036
4	SPI1 (GeneID 6688)	-0.06	migration z between -2 and 2; enough cells	5995
5	SBNO2 (GeneID 22904)	-0.62	migration z between -2 and 2; enough cells	6439
6	SLC25A10 (GeneID 1468)	0.26	migration z between -2 and 2; enough cells	5108
7	GPBP1L1 (GeneID 60313)	-0.48	migration z between -2 and 2; enough cells	6155
8	ST8SIA2 (GeneID 8128)	-0.52	migration z between -2 and 2; enough cells	5586
9	FLT4 (GeneID 2324)	-5.21	under 3300 nuclei; migration not judged	3166
10	ZFP37 (GeneID 7539)	-0.62	migration z between -2 and 2; enough cells	6326
11	GLYATL2 (GeneID 219970)	0.75	migration z between -2 and 2; enough cells	4368
12	TRPC4 (GeneID 7223)	-0.94	migration z between -2 and 2; enough cells	5148
13	RFPL1 (GeneID 5988)	-0.68	migration z between -2 and 2; enough cells	5526
14	MSH4 (GeneID 4438)	-5.13	under 3300 nuclei; migration not judged	2937
15	GRIA3 (GeneID 2892)	0.36	migration z between -2 and 2; enough cells	6340
16	GRAMD4 (GeneID 23151)	0.57	migration z between -2 and 2; enough cells	5710
17	ZNF296 (GeneID 162979)	0.26	migration z between -2 and 2; enough cells	5773
18	MPDZ (GeneID 8777)	1.8	migration z between -2 and 2; enough cells	6879
19	GRTP1 (GeneID 79774)	1.18	migration z between -2 and 2; enough cells	5908
20	CDK8 (GeneID 1024)	-0.42	migration z between -2 and 2; enough cells	5131
21	TNNI2 (GeneID 7136)	0.76	migration z between -2 and 2; enough cells	5458
22	INA (GeneID 9118)	1.04	migration z between -2 and 2; enough cells	5970
23	SNTN (GeneID 132203)	-0.62	migration z between -2 and 2; enough cells	6326
24	SPRN (GeneID 503542)	0.43	migration z between -2 and 2; enough cells	6115
25	FURIN (GeneID 5045)	0.24	migration z between -2 and 2; enough cells	4118
26	GAS7 (GeneID 8522)	1.53	migration z between -2 and 2; enough cells	6418
27	CACNG5 (GeneID 27091)	0.16	migration z between -2 and 2; enough cells	6778
28	CCDC51 (GeneID 79714)	-0.07	migration z between -2 and 2; enough cells	6054
29	OPN1MW2 (GeneID 728458)	-0.85	migration z between -2 and 2; enough cells	4577
30	ZNF619 (GeneID 285267)	-1.49	migration z between -2 and 2; enough cells	5404
31	SKAP1 (GeneID 8631)	-0.06	migration z between -2 and 2; enough cells	4746
32	C8orf76 (GeneID 84933)	1.16	migration z between -2 and 2; enough cells	6440
33	CHEK2 (GeneID 11200)	0.34	migration z between -2 and 2; enough cells	6341
34	KAT7 (GeneID 11143)	0	migration z between -2 and 2; enough cells	4964
35	HTRA4 (GeneID 203100)	0.39	migration z between -2 and 2; enough cells	5170
36	ENTREP3 (GeneID 10712)	1.31	migration z between -2 and 2; enough cells	6164
37	TRMT1L (GeneID 81627)	1.92	migration z between -2 and 2; enough cells	6110
38	FGF14 (GeneID 2259)	0.28	migration z between -2 and 2; enough cells	4071
39	EXPH5 (GeneID 23086)	-0.6	migration z between -2 and 2; enough cells	6832
40	AMER3 (GeneID 205147)	-0.3	migration z between -2 and 2; enough cells	4176
41	NTRK1 (GeneID 4914)	0.52	migration z between -2 and 2; enough cells	5710
42	TSPAN16 (GeneID 26526)	-0.55	migration z between -2 and 2; enough cells	5496
43	CLBA1 (GeneID 122616)	-0.7	migration z between -2 and 2; enough cells	6973
44	LARS2 (GeneID 23395)	0.21	migration z between -2 and 2; enough cells	4949
45	OR3A3 (GeneID 8392)	0.43	migration z between -2 and 2; enough cells	5836
46	MAP3K3 (GeneID 4215)	-1.29	migration z between -2 and 2; enough cells	4101
47	ENSA (GeneID 2029)	0.04	migration z between -2 and 2; enough cells	6354
48	BTK (GeneID 695)	-4.67 (active)	migration z below -2; enough cells	3694
49	XPO6 (GeneID 23214)	-0.31	migration z between -2 and 2; enough cells	6363
50	SNAPC3 (GeneID 6619)	-1.5	migration z between -2 and 2; enough cells	6076
51	ASIC5 (GeneID 51802)	-0.46	migration z between -2 and 2; enough cells	4248
52	GLRA2 (GeneID 2742)	0.18	migration z between -2 and 2; enough cells	4968
53	AP3B2 (GeneID 8120)	-1.25	migration z between -2 and 2; enough cells	5890
54	ZFAND6 (GeneID 54469)	0.08	migration z between -2 and 2; enough cells	5354
55	EYA4 (GeneID 2070)	0.16	migration z between -2 and 2; enough cells	3851
56	HAPSTR1 (GeneID 29035)	-0.56	migration z between -2 and 2; enough cells	6914
57	SLC6A12 (GeneID 6539)	-1.74	migration z between -2 and 2; enough cells	6308
